From article PMC7862700 come the findings set out here.

Protein sequences, listed by entry. Tags and fused reporters are not part of them. Lines headed by an entry give the natural chain unless they say otherwise; changes in a name come on top.
UniProt Q9Y603: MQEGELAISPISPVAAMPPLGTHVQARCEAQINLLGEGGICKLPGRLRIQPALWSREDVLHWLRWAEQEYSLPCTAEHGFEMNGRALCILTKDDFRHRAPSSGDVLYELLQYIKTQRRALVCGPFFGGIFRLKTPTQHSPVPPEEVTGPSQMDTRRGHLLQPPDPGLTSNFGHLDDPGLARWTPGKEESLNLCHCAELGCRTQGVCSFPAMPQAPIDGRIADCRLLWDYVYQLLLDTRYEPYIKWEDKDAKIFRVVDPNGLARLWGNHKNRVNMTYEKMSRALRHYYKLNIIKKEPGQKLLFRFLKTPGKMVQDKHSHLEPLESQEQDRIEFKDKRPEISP
UniProt P41212: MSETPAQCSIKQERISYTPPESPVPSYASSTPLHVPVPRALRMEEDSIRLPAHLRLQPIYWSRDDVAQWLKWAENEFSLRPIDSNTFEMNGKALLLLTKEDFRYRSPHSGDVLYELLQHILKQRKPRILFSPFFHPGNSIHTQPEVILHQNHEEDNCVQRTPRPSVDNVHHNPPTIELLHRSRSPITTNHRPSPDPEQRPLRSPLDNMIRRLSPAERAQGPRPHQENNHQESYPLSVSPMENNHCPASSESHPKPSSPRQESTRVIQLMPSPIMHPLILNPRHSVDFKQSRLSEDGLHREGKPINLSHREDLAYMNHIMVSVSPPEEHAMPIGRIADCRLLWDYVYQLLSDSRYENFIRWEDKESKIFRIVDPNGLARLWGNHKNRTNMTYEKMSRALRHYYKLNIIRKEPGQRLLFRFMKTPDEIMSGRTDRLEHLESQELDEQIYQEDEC

Only a part is listed here, and it is no random draw. At the low end of the ranking, values are background and their order means little.

Experiment in all cases: DAPPL (digital affinity profiling via proximity ligation, sequencing)
Common to all, as to conditions: 10 mM Tris-HCl pH 7.5, 50 mM NaCl, 1 mM DTT, 4% glycerol, room temperature, 30 min; GST-TFs on glutathione beads, 16-mer random dsDNA library, 0.1% …; high values mean tight binding; double strand, one strand shown; scale: fold enrichment (6-mer frequency, TF over GST control)

For assay [1], the target named is T1, ELF3 (UniProt P78545).
T1 sequence: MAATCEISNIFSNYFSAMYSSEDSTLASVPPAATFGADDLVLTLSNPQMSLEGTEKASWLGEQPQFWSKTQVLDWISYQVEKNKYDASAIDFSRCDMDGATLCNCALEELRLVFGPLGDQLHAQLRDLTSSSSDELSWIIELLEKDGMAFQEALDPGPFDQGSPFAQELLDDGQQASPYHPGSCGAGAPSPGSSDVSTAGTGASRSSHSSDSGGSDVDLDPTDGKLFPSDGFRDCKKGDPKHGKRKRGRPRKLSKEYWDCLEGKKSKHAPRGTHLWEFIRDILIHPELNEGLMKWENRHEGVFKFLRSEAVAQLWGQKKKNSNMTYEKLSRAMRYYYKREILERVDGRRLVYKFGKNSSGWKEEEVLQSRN

In assay [2] the target is ETV7 (UniProt Q9Y603).
Assay [3] concerns the target ETV6 (UniProt P41212).

In the case of GCTGGG, the binding signal in assay [1] came out at 0.793; in assay [2], 0.788; in assay [3], 0.849.

Consider GGAGAA, for which the results for the binding signal in assay [1], in assay [2] and in assay [3] were 0.302, 0.397 and 0.316, respectively.

Regarding GGGTGA, the binding signal in assay [1] amounted to 0.616; in assay [2], 0.649; in assay [3] it was 0.671.

With GAGCGC, the binding signal worked out at 0.541 in assay [1], 0.612 in assay [2] and 0.638 in assay [3].

TAGAGT: the binding signal in assay [1] came to 0.902; in assay [2] it was 0.803; in assay [3], 0.691.

On to GTGTGG, for which the binding signal is 0.609 in assay [1], 0.626 in assay [2] and 0.716 in assay [3].

Consider AGTAGT, for which the binding signal in assay [1] is 0.939; in assay [2], 0.995; in assay [3], 0.989.

In the case of AGTCAC, the binding signal in assay [1] came out at 0.878; in assay [2] it was 0.836; in assay [3] it was 0.759.

Regarding AGGTAC, the binding signal in assay [1] came to 0.903; in assay [2], 0.976; in assay [3], 0.923.

Turning to CGTGGT, the binding signal in assay [1] was 0.541; in assay [2], 0.646; in assay [3], 0.523.

Consider CAGTCG, for which the binding signal in assay [1] stood at 0.178; in assay [2], 0.256; in assay [3] it was 0.173.

Take CGCGGT: the binding signal in assay [1] was 0.858; in assay [2] it was 0.778; in assay [3], 0.782.

AGTTGT: the binding signal in assay [1] was found to be 0.683; in assay [2], 0.863; in assay [3], 0.842.

Turning to CTGAGT, the binding signal in assay [1] amounted to 0.477; in assay [2], 0.653; in assay [3], 0.595.

For the sequence GCCGGT, the binding signal in assay [1] came out at 0.753; in assay [2], 0.733; in assay [3], 0.706.

Turning to GGGGAA, the binding signal worked out at 0.712 in assay [1], 0.743 in assay [2] and 0.821 in assay [3].

GCGGCG: the figures for the binding signal in assay [1], in assay [2] and in assay [3] were 0.791, 0.844 and 0.928, respectively.

Consider GCCAAA, for which the binding signal was 0.797 in assay [1], 0.856 in assay [2] and 0.819 in assay [3].

As for GTAACG, the figures for the binding signal in assay [1], in assay [2] and in assay [3] were 0.828, 0.925 and 0.92, respectively.

As to CGGTCA, the binding signal was found to be 0.759 in assay [1], 0.894 in assay [2] and 0.792 in assay [3].

Take TACAGT: the results for the binding signal in assay [1], in assay [2] and in assay [3] were 0.829, 0.833 and 0.91, respectively.

Take CAAGGG: the binding signal was found to be 0.87 in assay [1], 0.977 in assay [2] and 0.878 in assay [3].

For AGAACG, the values for the binding signal in assay [1], in assay [2] and in assay [3] were 0.462, 0.441 and 0.483, respectively.

Take GGACGT: the binding signal turned out to be 0.497 in assay [1], 0.519 in assay [2] and 0.607 in assay [3].

GTTAGT: the binding signal came to 0.857 in assay [1], 0.824 in assay [2] and 0.792 in assay [3].

Turning to GAGCGA, the binding signal in assay [1] was determined as 0.642; in assay [2], 0.687; in assay [3], 0.603.

Take GGTCAA: the figures for the binding signal in assay [1], in assay [2] and in assay [3] were 0.912, 0.987 and 0.925, respectively.

As for GGGAGA, the binding signal in assay [1] worked out at 0.295; in assay [2] it was 0.355; in assay [3] it was 0.333.

In the case of GAGGGC, the binding signal was 0.672 in assay [1], 0.636 in assay [2] and 0.655 in assay [3].

As for GTGTGC, the binding signal came out at 0.872 in assay [1], 0.859 in assay [2] and 0.867 in assay [3].

For CGAGGG, the values for the binding signal in assay [1], in assay [2] and in assay [3] were 0.598, 0.769 and 0.696, respectively.

As to CCCGGG, the binding signal in assay [1] is 0.629; in assay [2] it was 0.764; in assay [3] it was 0.795.

For the sequence AGACTG, the binding signal was determined as 0.481 in assay [1], 0.574 in assay [2] and 0.536 in assay [3].

As to CGTAGA, the binding signal came to 0.799 in assay [1], 0.76 in assay [2] and 0.71 in assay [3].

Regarding TAGGGA, the binding signal in assay [1] is 0.828; in assay [2], 0.88; in assay [3] it was 0.771.

Turning to GTGAAA, the values for the binding signal in assay [1], in assay [2] and in assay [3] were 0.725, 0.787 and 0.673, respectively.
